The text below walks through data of publication PMC12709185.

Protein sequences, listed by entry. Tags and fused reporters are not part of them. Lines headed by an entry give the natural chain unless they say otherwise; changes in a name come on top.
UniProt Q9U2U0: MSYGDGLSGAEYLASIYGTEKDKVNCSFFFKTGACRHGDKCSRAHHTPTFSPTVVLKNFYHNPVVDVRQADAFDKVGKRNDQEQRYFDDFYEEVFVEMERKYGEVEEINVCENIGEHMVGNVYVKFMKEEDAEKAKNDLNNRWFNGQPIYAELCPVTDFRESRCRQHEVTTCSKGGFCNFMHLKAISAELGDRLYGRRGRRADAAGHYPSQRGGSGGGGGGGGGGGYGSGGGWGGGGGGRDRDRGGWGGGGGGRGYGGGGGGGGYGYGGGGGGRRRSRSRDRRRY

The target of the experiment is UAF-2::HA (C. elegans UAF-2, wild type) (C. elegans) (UniProt Q9U2U0). Briefly: pull-down; lysate (NP-40 buffer) of HEK293T cells expressing UAF-2::HA incubated overnight at 4°C with purified His::UAF-1::FLAG and Protein A/G magnetic beads carrying anti-HA antibody; washed 5 times with 1 x PBST; western blot; only the binder purified. On the technique in general: Immunoblotting shows a protein as a band on a membrane.

Results are given in words; binding and its absence hold for the method and conditions named. Binding seen in cells or lysates may run through a third protein. A result given as binding can be weak or reduced; the word gives no strength. Tags and fused reporters may be left off the sequences shown.

B1: His::UAF-1(T180I)::FLAG (C. elegans UAF-1 T180I) (protein, UniProt P90978-1 1-496)
chain: MSDHQDGMKLEDIERQFLDVAQREGGLEAIQPTTGPLENEENLKSSTGGGGGEDDNDRKKRKRSRSRDRDTRRRSRSRDRGERRGGGGGGDRDRSRSRERRRGGGGRDEPRRRGGDDEARSRREPEPQKPREPKKYRFWDVPPTGFETTTPMEYKNMQAAGQVPRGSVQSAVPVVGPSVICQSRRLYVGNIPFGCNEEAMLDFFNQQMHLCGLAQAPGNPILLCQINLDKNFAFIEFRSIDETTAGMAFDGINFMGQQLKVRRPRDYQPSQNTFDMNSRMPVSTIVVDSANKIFIGGLPNYLTEDQVKELLCSFGPLKAFSLNVDSQGNSKGYAFAEYLDPTLTDQAIAGLNGMQLGDKQLVVQLACANQQRHNTNLPNSASAIAGIDLSQGAGRATEILCLMNMVTEDELKADDEYEEILEDVRDECSKYGIVRSLEIPRPYEDHPVPGVGKVFVEFASTSDCQRAQAALTGRKFANRTVVTSYYDVDKYHNRQF
On to B1, for which the binding entry was “binds”.
